Over roughly 33,000 sequences, “E-score (-0.5 to 0.5)” has its median near -8e-05; the highest 2% begin near 0.23. Some of the results follow.
These sequences were tested against T1, Nrg2 (UniProt P38082) (assay: PBM E-score (8-mer binding enrichment) (E-score (-0.5 to 0.5)); higher = stronger / more preferred TF binding). Conditions: protein concentration: 100 nM; construct: GST-full length.
T1 sequence: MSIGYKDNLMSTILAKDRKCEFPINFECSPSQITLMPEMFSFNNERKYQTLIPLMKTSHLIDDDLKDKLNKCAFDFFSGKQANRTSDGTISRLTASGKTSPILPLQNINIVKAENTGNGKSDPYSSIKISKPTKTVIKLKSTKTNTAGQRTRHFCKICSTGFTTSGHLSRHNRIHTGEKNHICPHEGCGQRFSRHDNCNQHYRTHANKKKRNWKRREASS
Procedure, shortened: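 Using PURExpress in vitro transcription/translation, GST-tagged yeast transcription factors were made in full-length or DNA-binding-domain form. These were applied at about 100-200 nM to double-stranded universal all-10-mer Agilent arrays, and bound protein was detected with fluorescent anti-GST. Scans were normalised with masliner before the Universal PBM Analysis Suite assigned E-scores to ungapped eight-base words pooled with their reverse complements.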

Row | Sequence | PBM E-score
1 | GGTAAGAC | -0.187
2 | CTCAAATA | -0.0124
3 | CTGATTTA | 0.0778
4 | AGCTGGAT | -0.0223
5 | CTTATACA | -0.0688
6 | ACAAGGCC | -0.159
7 | GACACTGA | 0.0497
8 | CCTTGAAC | -0.0194
9 | AAACTGGT | -0.0176
10 | ACCAATCC | 0.133
11 | GTAGCACA | -0.0525
12 | GAGTGTAC | -0.0919
13 | AGAGTTTA | 0.0568
14 | CACGTCCG | -0.14
15 | AGTGACGA | 0.0685
16 | AGAGACAT | 0.0901
17 | CGGACGGA | -0.176
18 | GGGGTTAA | 0.00165
19 | ATGTTCCG | 0.0682
20 | AACCGGAT | 0.0929
21 | CCCGCACC | 0.0135
22 | ACAATTAG | -0.063
23 | GATCATCC | 0.1
24 | AGCGACTA | -0.042
25 | CTCGCGCC | -0.0298

Row | Sequence | PBM E-score
26 | ACATCCTA | 0.0559
27 | CAAGGCTA | -0.11
28 | ACTCTTTA | -0.0446
29 | GTGCGTGA | 0.0942
30 | AATGCGTA | -0.00291
31 | CTAATAAC | 0.117
32 | AGTATAGG | -0.0405
33 | CATGCAAC | 0.158
34 | AAAAGACC | -0.0302
35 | CCAGCGAC | -0.00853
36 | ATGCCGCC | -0.128
37 | CTTGCATC | -0.0901
38 | CTTGCGAA | 0.195
39 | ACTCGTTC | -0.0566
40 | ATCGTCGG | -0.0565
41 | ACTGCGTC | -0.197
42 | GAACGCAA | 0.116
43 | ACGGAAAT | 0.244
44 | AACAAAAA | 0.17
45 | AGGTTAGG | 0.145
46 | ACCCAGGT | -0.258
47 | CGCAACTC | 0.147
48 | GCGAGTCA | -0.0667
49 | TAGCACCA | -0.0186
50 | TGGGTTAA | -0.108

Row | Sequence | PBM E-score
51 | ACGTTACC | -0.17
52 | CCAGGGAA | 0.0205
53 | GTGTCACA | -0.0111
54 | CGATGGGA | -0.113
55 | ACACCTGG | -0.00545
56 | GAAGGTCC | -0.0364
57 | ATGGTTCG | 0.109
58 | GGTCAATA | 0.0756
59 | ACGACGCG | 0.114
60 | ACGTACAG | -0.181
61 | GCAGCAGC | -0.0495
62 | AGGAGATG | -0.0887
63 | TAGACTAA | -0.0628
64 | GCACATCA | 0.0661
65 | CACTGTGG | -0.0836
66 | GGGCCAAA | 0.0718
67 | CGTTGATA | 0.107
68 | ATTCAATC | 0.131
69 | GTTCCAGA | -0.0282
70 | AGTAAGGC | -0.036
71 | CCGGAAGA | -0.0885
72 | GAGTTGGC | -0.143
73 | CCCCAATA | -0.0225
74 | AACCGACG | 0.159
75 | AAACCATC | 0.103

Row | Sequence | PBM E-score
76 | AGTTCTAA | -0.00284
77 | AGTGACTC | -0.0845
78 | ACCACGCA | -0.0616
79 | CATACGCC | -0.0382
80 | CTAGTGTC | -0.0251
81 | AATTAATT | -0.112
82 | GTTCTCGA | 0.0127
83 | AGGACGTG | -0.0972
84 | AGGCCCCC | -0.405
85 | AATCCCCG | 0.0281
86 | ATCCGGGC | 0.0265
87 | TAAGTCGA | -0.0659
88 | GTTCGATA | 0.208
89 | ACCTTGGA | -0.0164
90 | AGAGAGTG | -0.055
91 | AAAGGTCC | 0.0985
92 | ACGTGAGA | -0.11
93 | ACTTATGA | -0.0626
94 | GCTTTTTA | 0.0175
95 | CTGGATAA | 0.0304
96 | ACCTCCAG | -0.212
97 | ACGGGTAG | -0.0786
98 | CGACAGGC | -0.0567
99 | CAGGAACG | 0.0488
100 | ATGTACGA | 0.0829

Row | Sequence | PBM E-score
101 | AAGCTATC | 0.153
102 | AAAAGCGT | -0.0481
103 | GCCATGAC | -0.214
104 | GTAATTCA | 0.105
105 | CTGAGAGA | -0.101
106 | ATCAGTGC | -0.0746
107 | GTAACCGA | 0.0943
108 | ATGAAGTG | 0.235
109 | ACCGCAAT | 0.213
110 | CATCTTGC | 0.0927
111 | CCACAGCA | 0.0353
112 | ATGCTAAA | -0.0175
113 | CAAAAATC | -0.168
114 | AGCGTAAA | -0.0637
115 | AACACGCG | -0.00818
116 | AAAATTTG | -0.0398
117 | GGTGCGTA | -0.14
118 | ATGGTGTA | -0.0203
119 | AGCGCTCC | 0.0281
120 | GGAGCACA | -0.106
121 | TCTCACCA | -0.0291
122 | GCGGATCA | 0.0678
123 | CATATGCC | 0.0369
124 | ATTTGCCA | -0.074
125 | AGATAACT | -0.069

Row | Sequence | PBM E-score
126 | CGGATGAG | 0.15
127 | AGACAACG | 0.186
128 | ACGGTAGA | -0.0936
129 | AATTATAC | 0.122
130 | AAAAGAGA | 0.0202
131 | CCTACACA | 0.0832
132 | ACCCATCG | -0.0465
133 | ACCATCCG | -0.0186
134 | ACTTTGCG | 0.00022
135 | ATGAGCAG | -0.0237
136 | TCAGCTGA | 0.279
137 | ATGCCGGG | -0.157
138 | CGAGTTTA | 0.0171
139 | AACTTTGC | 0.0247
140 | GTTGCTTA | 0.097
141 | AACATCCG | -0.0598
142 | GCGTGTTA | -0.0649
143 | CCCTAACG | -0.0356
144 | CCAAATTA | 0.12
145 | AAACCGAA | -0.0367
146 | CCACTTTA | 0.0978
147 | CTGAGGTA | 0.104
148 | CACTAAGG | 0.0299
149 | ACACATAT | 0.0862
150 | GCGTGATA | -0.00821

An excerpt of these results, with tabs:
Row	Sequence	PBM E-score
144	CCAAATTA	0.12
145	AAACCGAA	-0.0367
146	CCACTTTA	0.0978
147	CTGAGGTA	0.104
148	CACTAAGG	0.0299
149	ACACATAT	0.0862
150	GCGTGATA	-0.00821

Next results.

Row | Sequence | PBM E-score
151 | CAATGACC | -0.143
152 | AATAGCCG | -0.0662
153 | CATTGTTC | 0.0751
154 | GCTATTGA | -0.156
155 | AAAGTGCC | -0.188
156 | CACGGATA | 0.235
157 | ACAGTGCA | 0.178
158 | ACTTCATA | 0.048
159 | CCAGAGTA | 0.0429
160 | CTGCCAGC | -0.144
161 | ACTGCAAG | -0.172
162 | GGAGAGTA | -0.00931
163 | CACTTATA | -0.023
164 | TCTTAGAA | -0.0305
165 | ACTTTTGA | -0.0356
166 | ACCATCGC | 0.139
167 | ACAATACG | 0.0515
168 | ACACACTG | 0.114
169 | CGACTTCA | 0.00997
170 | AGGATTGG | -0.0959
171 | CCCAACCG | -0.0616
172 | CACAAGTA | 0.0318

Given as labelled records: entries from further up.
ACCATCGC
  PBM E-score: 0.139
ACAATACG
  PBM E-score: 0.0515

Rewritten as tab-separated lines: part of the list above
Row	Sequence	PBM E-score
138	CGAGTTTA	0.0171
139	AACTTTGC	0.0247
